Binding result, Kd and binding signal data for five sequences are collected here from paper PMC11287749.

Chains of the proteins cited; added tags and fusions are not shown. Residues count along the entry.
UniProt P05231, 30-212: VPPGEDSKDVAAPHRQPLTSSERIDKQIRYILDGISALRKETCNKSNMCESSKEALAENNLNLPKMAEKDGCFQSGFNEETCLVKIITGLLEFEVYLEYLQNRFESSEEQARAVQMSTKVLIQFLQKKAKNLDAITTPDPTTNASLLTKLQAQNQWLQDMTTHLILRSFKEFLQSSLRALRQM

For data set [1], the target named is IL-6 (human recombinant, Invitrogen) (Homo sapiens) (UniProt P05231). Briefly: SWCNT NIR fluorescence. The settings on record: noncovalently adsorbed on SWCNT, 0.5 mg/L SWCNT-ssDNA in 1x PBS (or 1x PBS + 10% FBS), 5250 ng/mL IL-6, 120 uL, up to 180 min, commercial protein, single-stranded DNA; for binding result: PBS + 10% FBS, no significant response.
Data set [2] has the same target. Briefly: not stated (cited). Particulars: 0.5 mg/L SWCNT-ssDNA in 1x PBS (or 1x PBS + 10% FBS), 5250 ng/mL IL-6, 120 uL, up to 180 min; commercial protein; single-stranded DNA.

For some assays here: A negative result means that nothing was seen under these conditions. The exact form of at least one protein or probe is not confirmed. For some assays here: Whether high values mean tight binding is not given here for every scale.

In the case of GGTGGCAGGAGGACTA [15Apt], the binding result in data set [1] (p = 0.15) is “no binding”.

Consider “GGTGGCAGGAGGACTATTTATTTGCTTTTCT [31Apt (free, cited)]”, for which the dissociation constant Kd in data set [2] stood at 17 nM.

Consider “TGTGTGTGTGTGTGTGTGTGTGTGTGTGTGGTGGCAGGAGGACTATTTATTTGCTTTTCT [(GT)15+31Apt]”, for which, in data set [1] (p = 0.58), the binding result is on record as “no binding”.

For GGTGGCAGGAGGACTA [15Apt (free, cited)], the Kd in data set [2] turned out to be 190 nM.

For the sequence GGTGGCAGGAGGACTATTTATTTGCTTTTCT [31Apt], the binding signal in data set [1] (PBS, construct heated to 95 C and cooled, 3 h, p = 0.032) was found to be 10 % quenching.

Usually Kd stands for the free concentration of one partner at which half of the binding sites on the other are occupied at equilibrium, for simple one-to-one binding.
